Test [1] concerns the target V5-tagged DNAJB6b wild-type (human) (UniProt O75190). Put plainly: co-IP.
The target of test [2] is V5-DNAJB6b Y53F (human) (UniProt O75190). Put plainly: co-IP.
Test [3] concerns the target V5-DNAJB6b Y53E (human) (UniProt O75190). Description: co-IP.
Test [4] deals with V5-tagged DNAJB6b wild-type (human) (UniProt O75190). Put plainly: proximity ligation.
In test [5] the target is V5-DNAJB6b Y53F (human) (UniProt O75190). Put plainly: proximity ligation.
The target in test [6] is V5-DNAJB6b Y53E (human) (UniProt O75190). Description: proximity ligation.

Protein sequences, listed by entry. Tags and fused reporters are not part of them. Lines headed by an entry give the natural chain unless they say otherwise; changes in a name come on top. Chains listed by the source or under a name are the forms on record and can include a tag or linker.
V5-tagged DNAJB6b wild-type (O75190, form named): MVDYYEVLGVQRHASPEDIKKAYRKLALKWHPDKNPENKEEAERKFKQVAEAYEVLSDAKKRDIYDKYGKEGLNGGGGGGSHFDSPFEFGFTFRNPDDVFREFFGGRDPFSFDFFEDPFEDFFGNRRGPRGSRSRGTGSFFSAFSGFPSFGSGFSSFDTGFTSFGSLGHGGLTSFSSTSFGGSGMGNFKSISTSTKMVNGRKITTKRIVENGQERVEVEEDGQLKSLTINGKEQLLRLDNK
V5-DNAJB6b Y53F (O75190, form named): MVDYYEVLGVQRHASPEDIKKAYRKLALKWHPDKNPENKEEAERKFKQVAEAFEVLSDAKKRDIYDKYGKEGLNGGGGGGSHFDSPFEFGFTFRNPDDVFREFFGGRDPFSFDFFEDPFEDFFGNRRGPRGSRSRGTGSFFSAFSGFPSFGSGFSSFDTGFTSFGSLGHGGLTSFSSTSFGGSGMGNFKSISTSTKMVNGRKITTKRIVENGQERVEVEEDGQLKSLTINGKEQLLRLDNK
V5-DNAJB6b Y53E (O75190, form named): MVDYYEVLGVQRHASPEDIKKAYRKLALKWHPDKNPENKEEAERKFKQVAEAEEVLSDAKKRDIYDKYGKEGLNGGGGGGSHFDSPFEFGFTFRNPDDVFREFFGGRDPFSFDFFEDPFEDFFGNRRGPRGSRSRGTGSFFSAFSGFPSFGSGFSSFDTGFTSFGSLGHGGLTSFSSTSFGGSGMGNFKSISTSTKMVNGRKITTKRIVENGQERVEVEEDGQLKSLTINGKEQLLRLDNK
UniProt P0DMV8: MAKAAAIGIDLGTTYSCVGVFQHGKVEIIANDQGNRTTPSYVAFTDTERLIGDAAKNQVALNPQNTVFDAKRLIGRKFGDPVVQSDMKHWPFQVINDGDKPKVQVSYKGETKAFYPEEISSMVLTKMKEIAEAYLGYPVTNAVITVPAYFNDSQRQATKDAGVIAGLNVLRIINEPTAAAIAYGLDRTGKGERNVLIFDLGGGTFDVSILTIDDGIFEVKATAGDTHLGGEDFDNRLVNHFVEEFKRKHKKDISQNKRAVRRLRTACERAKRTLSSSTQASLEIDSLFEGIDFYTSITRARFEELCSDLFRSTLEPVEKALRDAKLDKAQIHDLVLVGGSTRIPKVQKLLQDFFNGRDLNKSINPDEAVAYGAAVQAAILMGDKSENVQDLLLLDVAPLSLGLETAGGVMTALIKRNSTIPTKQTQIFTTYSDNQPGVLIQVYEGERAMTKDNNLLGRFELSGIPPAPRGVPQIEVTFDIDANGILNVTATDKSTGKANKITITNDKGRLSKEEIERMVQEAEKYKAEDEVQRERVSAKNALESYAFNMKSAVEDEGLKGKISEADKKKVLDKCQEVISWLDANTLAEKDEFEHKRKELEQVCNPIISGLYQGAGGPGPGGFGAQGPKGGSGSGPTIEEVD
UniProt P11142: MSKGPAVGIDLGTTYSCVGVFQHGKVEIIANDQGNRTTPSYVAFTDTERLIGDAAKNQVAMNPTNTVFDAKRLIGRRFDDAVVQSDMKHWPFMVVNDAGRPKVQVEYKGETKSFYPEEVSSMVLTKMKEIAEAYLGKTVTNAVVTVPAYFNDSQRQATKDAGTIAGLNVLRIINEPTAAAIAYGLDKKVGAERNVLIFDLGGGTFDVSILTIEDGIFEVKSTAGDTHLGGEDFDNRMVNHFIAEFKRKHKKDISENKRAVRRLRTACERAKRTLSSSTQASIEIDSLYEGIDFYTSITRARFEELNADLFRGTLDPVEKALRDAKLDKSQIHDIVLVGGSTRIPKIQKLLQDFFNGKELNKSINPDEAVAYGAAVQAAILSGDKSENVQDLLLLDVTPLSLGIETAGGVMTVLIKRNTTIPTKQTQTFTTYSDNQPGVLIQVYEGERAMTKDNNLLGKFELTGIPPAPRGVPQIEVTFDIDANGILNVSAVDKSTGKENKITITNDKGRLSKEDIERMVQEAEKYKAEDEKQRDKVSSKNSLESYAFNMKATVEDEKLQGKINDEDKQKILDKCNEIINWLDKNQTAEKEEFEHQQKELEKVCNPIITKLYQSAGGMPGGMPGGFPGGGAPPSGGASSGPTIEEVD

No constants are given. Whether binding was seen depends on the method and setting. In cells and extracts the contact can be indirect. Some results given as binding are weak or reduced against the parent protein; the word gives no strength.

In the case of HSPA1A (from UniProt P0DMV8 1-641), the binding entry (in test [1]; in the test with V5-DNAJB6b Y53F (human) [2]; with V5-DNAJB6b Y53E (human) [3]) was “binds” throughout.
HSPA8 (from UniProt P11142 1-646): the binding result in test [1] is on record as “binds”; with V5-DNAJB6b Y53F (human) [2], “binds”; in the test with V5-DNAJB6b Y53E (human) [3], “binds”; in test [4], “binds”; with V5-DNAJB6b Y53F (human) [5] it was “binds weakly”; with V5-DNAJB6b Y53E (human) [6], “binds”.

The values above are taken from publication doi:10.1101/2025.11.14.688390.
